In the supplement of paper PMC10849652:
This is one part of the list.

The chains behind the UniProt entries cited, without tags or fusion partners. Where a name states a change or a piece, a line headed by the entry shows the natural chain unless it says otherwise.
UniProt Q58FF7, whole entry, looked up: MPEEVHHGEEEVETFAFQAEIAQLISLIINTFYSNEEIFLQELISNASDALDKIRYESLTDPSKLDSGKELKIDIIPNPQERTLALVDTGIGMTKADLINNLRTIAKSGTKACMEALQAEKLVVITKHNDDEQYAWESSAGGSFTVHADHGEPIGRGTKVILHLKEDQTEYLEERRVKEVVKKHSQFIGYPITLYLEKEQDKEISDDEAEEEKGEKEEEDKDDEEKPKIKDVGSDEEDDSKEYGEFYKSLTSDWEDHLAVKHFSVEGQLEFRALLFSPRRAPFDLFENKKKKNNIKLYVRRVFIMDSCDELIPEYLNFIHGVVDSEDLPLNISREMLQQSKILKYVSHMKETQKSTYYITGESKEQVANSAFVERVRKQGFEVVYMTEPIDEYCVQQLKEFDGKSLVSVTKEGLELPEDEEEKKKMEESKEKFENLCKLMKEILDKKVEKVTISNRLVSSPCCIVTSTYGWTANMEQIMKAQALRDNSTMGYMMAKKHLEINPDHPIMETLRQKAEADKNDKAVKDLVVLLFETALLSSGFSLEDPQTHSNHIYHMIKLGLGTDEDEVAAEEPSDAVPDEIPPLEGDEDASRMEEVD
UniProt P52597: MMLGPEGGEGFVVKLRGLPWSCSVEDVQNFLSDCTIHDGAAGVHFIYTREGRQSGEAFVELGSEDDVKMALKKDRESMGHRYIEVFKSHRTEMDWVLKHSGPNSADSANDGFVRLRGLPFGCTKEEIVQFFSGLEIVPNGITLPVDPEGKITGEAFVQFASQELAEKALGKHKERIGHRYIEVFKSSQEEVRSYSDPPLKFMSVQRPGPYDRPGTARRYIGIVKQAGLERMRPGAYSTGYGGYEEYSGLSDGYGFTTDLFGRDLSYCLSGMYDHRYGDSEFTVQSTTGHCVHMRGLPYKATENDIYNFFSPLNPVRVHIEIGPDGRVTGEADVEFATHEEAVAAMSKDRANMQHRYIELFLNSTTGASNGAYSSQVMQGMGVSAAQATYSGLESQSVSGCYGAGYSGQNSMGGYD
UniProt O60725, whole entry, looked up: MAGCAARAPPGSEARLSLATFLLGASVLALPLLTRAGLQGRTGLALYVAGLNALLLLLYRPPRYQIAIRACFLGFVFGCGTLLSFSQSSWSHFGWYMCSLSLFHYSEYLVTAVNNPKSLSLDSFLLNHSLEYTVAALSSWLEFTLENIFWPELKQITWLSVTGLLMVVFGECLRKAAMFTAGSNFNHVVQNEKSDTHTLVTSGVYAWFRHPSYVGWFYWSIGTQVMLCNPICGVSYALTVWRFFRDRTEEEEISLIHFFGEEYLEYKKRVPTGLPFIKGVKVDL
UniProt P52789: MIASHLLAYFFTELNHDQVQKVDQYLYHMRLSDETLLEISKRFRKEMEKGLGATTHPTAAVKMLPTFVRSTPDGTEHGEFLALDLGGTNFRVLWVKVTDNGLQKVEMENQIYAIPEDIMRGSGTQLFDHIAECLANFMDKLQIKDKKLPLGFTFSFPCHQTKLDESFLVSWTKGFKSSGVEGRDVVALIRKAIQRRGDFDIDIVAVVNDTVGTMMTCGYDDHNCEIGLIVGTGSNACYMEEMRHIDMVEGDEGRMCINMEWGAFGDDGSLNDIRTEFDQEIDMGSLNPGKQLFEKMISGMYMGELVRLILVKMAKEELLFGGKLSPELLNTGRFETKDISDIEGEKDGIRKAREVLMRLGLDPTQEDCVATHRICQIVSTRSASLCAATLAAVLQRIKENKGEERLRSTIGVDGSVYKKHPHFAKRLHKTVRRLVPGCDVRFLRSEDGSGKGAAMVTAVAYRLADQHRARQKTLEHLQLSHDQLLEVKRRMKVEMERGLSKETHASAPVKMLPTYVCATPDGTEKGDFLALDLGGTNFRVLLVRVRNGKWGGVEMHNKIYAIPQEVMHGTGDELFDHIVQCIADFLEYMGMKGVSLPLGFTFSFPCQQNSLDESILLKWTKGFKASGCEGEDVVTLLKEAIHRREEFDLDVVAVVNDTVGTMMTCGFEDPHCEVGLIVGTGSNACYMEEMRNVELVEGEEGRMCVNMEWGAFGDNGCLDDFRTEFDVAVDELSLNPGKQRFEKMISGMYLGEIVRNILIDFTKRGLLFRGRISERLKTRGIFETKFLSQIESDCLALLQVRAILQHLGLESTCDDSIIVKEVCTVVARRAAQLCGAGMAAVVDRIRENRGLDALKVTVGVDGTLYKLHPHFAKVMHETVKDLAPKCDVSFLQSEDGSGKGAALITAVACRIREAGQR
UniProt P55795: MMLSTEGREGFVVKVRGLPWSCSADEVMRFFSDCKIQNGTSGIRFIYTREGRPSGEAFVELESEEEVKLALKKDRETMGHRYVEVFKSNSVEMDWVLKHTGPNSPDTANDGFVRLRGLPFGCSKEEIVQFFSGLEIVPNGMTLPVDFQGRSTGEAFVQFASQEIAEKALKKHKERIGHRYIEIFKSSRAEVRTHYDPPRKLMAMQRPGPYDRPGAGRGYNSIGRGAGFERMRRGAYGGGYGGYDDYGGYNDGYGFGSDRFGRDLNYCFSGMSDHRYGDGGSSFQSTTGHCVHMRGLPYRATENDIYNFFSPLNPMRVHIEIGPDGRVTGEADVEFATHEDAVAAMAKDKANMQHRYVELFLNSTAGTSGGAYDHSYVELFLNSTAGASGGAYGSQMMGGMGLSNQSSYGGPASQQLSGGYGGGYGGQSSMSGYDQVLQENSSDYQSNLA
UniProt Q86VS8: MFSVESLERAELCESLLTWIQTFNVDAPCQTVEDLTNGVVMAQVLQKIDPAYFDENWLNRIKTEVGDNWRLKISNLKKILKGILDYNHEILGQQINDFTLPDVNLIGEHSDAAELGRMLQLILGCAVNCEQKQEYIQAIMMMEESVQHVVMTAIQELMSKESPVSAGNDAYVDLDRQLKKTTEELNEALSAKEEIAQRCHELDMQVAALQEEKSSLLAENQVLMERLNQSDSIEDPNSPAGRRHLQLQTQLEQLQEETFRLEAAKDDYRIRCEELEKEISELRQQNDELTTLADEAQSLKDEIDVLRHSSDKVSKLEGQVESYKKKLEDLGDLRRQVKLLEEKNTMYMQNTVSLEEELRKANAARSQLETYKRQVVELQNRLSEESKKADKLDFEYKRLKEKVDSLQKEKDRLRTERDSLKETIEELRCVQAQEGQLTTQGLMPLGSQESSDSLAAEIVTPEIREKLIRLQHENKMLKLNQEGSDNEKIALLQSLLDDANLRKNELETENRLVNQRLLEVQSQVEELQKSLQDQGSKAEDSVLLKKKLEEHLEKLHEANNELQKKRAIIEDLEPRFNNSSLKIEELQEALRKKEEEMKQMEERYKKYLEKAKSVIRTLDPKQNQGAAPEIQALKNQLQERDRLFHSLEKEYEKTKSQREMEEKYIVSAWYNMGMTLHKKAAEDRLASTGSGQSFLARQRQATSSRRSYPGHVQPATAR
UniProt P05362: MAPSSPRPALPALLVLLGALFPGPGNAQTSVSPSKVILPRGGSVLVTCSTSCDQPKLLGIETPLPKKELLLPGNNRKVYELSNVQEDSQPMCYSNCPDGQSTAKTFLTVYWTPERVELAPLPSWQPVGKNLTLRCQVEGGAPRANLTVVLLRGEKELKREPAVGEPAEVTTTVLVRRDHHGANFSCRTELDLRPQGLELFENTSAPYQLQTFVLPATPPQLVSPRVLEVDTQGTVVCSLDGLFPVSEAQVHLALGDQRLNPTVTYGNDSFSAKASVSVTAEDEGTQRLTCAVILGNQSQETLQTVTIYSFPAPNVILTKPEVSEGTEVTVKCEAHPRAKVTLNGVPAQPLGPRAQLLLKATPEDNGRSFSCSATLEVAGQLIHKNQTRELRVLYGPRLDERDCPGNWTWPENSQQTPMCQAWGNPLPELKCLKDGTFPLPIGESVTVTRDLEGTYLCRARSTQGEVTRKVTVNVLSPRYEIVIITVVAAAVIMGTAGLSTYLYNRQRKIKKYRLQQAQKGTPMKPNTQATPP
UniProt O15347: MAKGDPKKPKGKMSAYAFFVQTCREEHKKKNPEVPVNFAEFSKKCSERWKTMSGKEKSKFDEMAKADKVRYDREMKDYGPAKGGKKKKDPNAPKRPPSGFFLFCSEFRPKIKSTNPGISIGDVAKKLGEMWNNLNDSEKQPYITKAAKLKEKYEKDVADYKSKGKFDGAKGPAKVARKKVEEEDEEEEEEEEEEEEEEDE
UniProt Q9BX68: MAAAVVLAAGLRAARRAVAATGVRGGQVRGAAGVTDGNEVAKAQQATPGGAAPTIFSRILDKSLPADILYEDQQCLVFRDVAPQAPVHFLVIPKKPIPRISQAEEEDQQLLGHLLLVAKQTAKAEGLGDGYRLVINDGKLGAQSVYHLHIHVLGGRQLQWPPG
UniProt P07910: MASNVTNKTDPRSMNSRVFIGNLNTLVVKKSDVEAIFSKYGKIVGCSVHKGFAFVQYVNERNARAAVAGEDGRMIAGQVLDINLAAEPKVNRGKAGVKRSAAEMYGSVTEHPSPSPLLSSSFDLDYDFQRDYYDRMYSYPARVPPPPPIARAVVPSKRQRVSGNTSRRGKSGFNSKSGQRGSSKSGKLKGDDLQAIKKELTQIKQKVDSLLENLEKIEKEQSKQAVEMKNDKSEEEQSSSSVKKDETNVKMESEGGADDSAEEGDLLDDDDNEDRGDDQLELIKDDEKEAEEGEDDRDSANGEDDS
UniProt Q03014: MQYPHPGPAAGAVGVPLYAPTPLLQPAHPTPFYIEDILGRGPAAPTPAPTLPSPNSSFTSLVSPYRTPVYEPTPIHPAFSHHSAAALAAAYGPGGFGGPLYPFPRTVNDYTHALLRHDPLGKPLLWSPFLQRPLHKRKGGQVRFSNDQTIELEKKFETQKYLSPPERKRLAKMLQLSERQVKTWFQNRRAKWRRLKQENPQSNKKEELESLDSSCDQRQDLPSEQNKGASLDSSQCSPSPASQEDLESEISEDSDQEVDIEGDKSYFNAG
UniProt O75146: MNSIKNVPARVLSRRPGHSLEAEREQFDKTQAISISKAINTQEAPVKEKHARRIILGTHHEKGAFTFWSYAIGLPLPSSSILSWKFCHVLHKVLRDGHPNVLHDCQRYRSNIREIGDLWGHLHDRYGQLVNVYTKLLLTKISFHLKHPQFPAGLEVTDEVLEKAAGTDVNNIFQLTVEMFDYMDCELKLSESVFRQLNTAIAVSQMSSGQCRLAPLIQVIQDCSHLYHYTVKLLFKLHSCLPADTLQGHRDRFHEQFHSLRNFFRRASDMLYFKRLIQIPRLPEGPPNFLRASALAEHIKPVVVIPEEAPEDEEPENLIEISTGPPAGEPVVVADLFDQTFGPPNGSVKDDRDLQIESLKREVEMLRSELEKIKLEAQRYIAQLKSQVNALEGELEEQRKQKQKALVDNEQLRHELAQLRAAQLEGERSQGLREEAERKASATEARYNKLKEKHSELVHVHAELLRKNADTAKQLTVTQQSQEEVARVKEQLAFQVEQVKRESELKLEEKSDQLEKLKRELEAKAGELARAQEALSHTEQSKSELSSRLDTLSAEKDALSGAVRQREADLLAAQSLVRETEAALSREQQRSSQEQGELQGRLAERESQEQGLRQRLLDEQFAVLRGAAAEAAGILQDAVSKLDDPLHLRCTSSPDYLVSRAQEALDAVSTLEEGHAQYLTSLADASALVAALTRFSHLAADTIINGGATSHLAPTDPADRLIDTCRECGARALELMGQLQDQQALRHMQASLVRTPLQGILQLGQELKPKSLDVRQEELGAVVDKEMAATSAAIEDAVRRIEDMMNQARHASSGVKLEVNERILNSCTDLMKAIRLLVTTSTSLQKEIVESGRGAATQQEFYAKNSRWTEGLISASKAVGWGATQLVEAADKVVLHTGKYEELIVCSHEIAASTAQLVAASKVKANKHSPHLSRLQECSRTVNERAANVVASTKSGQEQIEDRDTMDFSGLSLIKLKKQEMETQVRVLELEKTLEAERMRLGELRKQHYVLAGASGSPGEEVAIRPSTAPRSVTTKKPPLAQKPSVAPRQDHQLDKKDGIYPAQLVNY
UniProt P05114: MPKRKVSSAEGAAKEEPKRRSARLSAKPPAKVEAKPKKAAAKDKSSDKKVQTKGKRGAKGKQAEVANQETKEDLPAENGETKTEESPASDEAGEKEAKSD
UniProt Q53FT3: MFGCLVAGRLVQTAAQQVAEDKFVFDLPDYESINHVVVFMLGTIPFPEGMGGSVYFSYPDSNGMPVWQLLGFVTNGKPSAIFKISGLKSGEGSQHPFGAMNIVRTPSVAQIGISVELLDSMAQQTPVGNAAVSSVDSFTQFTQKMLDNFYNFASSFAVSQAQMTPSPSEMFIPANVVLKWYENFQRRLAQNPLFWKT
UniProt Q86YM7: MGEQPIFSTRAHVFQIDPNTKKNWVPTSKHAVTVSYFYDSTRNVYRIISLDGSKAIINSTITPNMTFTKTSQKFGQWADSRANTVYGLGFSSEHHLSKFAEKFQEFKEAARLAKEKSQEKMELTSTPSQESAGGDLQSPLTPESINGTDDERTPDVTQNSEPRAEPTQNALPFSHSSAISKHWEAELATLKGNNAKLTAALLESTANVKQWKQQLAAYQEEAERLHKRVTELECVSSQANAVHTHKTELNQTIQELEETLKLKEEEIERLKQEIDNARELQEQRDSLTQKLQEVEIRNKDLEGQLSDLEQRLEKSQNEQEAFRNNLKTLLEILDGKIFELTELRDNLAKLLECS

Compound: Cc1ccc(C(=O)N(CCCN)[C@@H](c2nc3cc(Cl)ccc3c(=O)n2Cc2ccccc2)C(C)C)cc1 [ispinesib]
Experiment: log2 fold change, soluble protein after heating vs DMSO (PISA); higher = thermal stabilisation; K562 cells, 10 uM, 30 min; active = over 0.2 and 3.5 SD of the protein, either way, in both replicates (recomputed)
How it was run: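 K562 cells at 2×10^6 cells/mL were treated with 10 μM compound for 30 min. Aliquots were heated for 3 min across 48°C-58°C, pooled, and extracted in PBS with 0.5% NP-40 at 4°C; soluble protein was the supernatant after 21,000xg for 90 min. Soluble protein was quantified by TMTpro 16plex LC-MS/MS with channel sums equalised, and reported as log2 fold change in thermal stability against DMSO controls, with values from duplicates.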

Row | Target | log2 fold change
1 | HSP90AB3P (UniProt Q58FF7) | inactive: -0.035
2 | HNRNPK isoform 3 (UniProt P61978) | inactive: 0.014
3 | HSPA8 (UniProt E9PK54) | inactive: 0.012
4 | HMOX2 (UniProt P30519) | inactive: -0.028
5 | HNRNPF (UniProt P52597) | inactive: -0.092
6 | HIST2H3A (UniProt Q71DI3) | inactive: -0.081
7 | HMGN2 (UniProt P05204) | inactive: -0.048
8 | ICMT (UniProt O60725) | inactive: -0.42
9 | HK2 (UniProt P52789) | inactive: 0.161
10 | HRAS (UniProt P01112) | inactive: 0.22
11 | HNRNPH2 (UniProt P55795) | inactive: -0.159
12 | HOOK3 (UniProt Q86VS8) | inactive: -0.199
13 | ICAM1 (UniProt P05362) | inactive: 0.121
14 | HMGB3 (UniProt O15347) | inactive: 0.1
15 | HIST2H2BF isoform 2 (UniProt Q5QNW6) | inactive: -0.178
16 | HINT2 (UniProt Q9BX68) | inactive: 0.222
17 | HNRNPC isoform 2 (UniProt P07910) | inactive: -0.35
18 | HHEX (UniProt Q03014) | inactive: -0.128
19 | HS1BP3 (UniProt Q53T59) | inactive: -0.165
20 | HIP1R (UniProt O75146) | inactive: -0.097
21 | HNRNPUL2 (UniProt Q1KMD3) | inactive: 0.004
22 | HPCAL1 (UniProt P37235) | inactive: -0.054
23 | HSD17B12 (UniProt Q53GQ0) | inactive: 0.243
24 | HIC2 (UniProt Q96JB3) | inactive: -0.061
25 | HNRNPH1 (UniProt P31943) | inactive: -0.068
26 | HMGN1 (UniProt P05114) | inactive: -0.042
27 | HIST2H2BC (UniProt Q6DN03) | inactive: -0.18
28 | HIKESHI (UniProt Q53FT3) | inactive: 0.192
29 | HNRNPUL1 (UniProt Q9BUJ2) | inactive: -0.019
30 | HOMER1 (UniProt Q86YM7) | inactive: 0.083

Looked up above:
HINT2 (UniProt Q9BX68) – log2 fold change: inactive: 0.222
HSP90AB3P (UniProt Q58FF7) – log2 fold change: inactive: -0.035
